Among the data in the supplement of paper PMC5949888 are growth estimate values, retold here.

Most values lie at the floor of the assay. Slopes are relative: functional sequences can read slightly below zero.

This series has as its system Saccharomyces cerevisiae PS128 hsf1 delta, HSF1(1-493) fusion. The experiment in a line: growth estimate (transactivation domain function in HSF1 fusion, heat-shock survival) (a.u. (slope of normalised read count over time)); higher = stronger growth at 37°C, i.e. more transactivation activity. The conditions noted are these: library: random library.
For the substance VVLPA, the growth estimate was under -0.25.
As to SCFFRVYSAGCH, the growth estimate is under -0.25.
As to EKDTKPRDR, the growth estimate is under -0.25.
Turning to NWPGLDFMYLGIN, the growth estimate was under -0.25.
Turning to ILGLSQLL, the growth estimate was under -0.25.
As to RDRRLLINVREIGPIGEVVT, the growth estimate is under -0.25.
As for FISQFR, the growth estimate was under -0.25.
For the substance RERGNV, the growth estimate was -0.246.
In the case of GIPASQTPTRNKSRLNKSAA, the growth estimate was under -0.25.
For KLLLVIAYPVEHHVPQLQAT, the growth estimate is under -0.25.
With EHMVLVVTTVLLKLGIRCPA, the growth estimate was under -0.25.
In the case of TRLSSREP, the growth estimate was under -0.25.
HFQTQMITLQGFLTVWRNNN: the growth estimate was under -0.25.
Then PSGGQDYGQQISISRTGYLG, with under -0.25.
Turning to LIHTQVPKGYVPDFPG, the growth estimate was under -0.25.
As for HVGARTCARLRSCMSNSLTT, the growth estimate is under -0.25.
Take FTCNSGPGAHGIIIGIDCVC: the growth estimate is under -0.25.
With CEVVYSVTGRLFLALH, the growth estimate is under -0.25.
In the case of TMAVIPLRR, the growth estimate is under -0.25.
Regarding ASKCISSPRITRVRASMKGP, the growth estimate was under -0.25.
Then THGDCGIHVQRQARHAVDPQ, with under -0.25; and GVA, with under -0.25.
ALDRRRDECAFAC: the growth estimate is under -0.25.
For GTLHAW, the growth estimate was -0.191.
As for TPTEKYNHWGEQPHGFCHWG, the growth estimate was under -0.25.
With RLGIVQTISM, the growth estimate was under -0.25.
For WYLCSQQGRKDNGSFCANYE, the growth estimate was under -0.25.
As to CPHDTVRGNFSDNSSRNV, the growth estimate was under -0.25.
Turning to RVSRTYYILGHGPVVIAETK, the growth estimate was under -0.25.
As to VTRSDETGRTWTPLSPRLAR, the growth estimate was under -0.25.
For the substance KLDCSKLVLR, the growth estimate is under -0.25.
In the case of VGHDRSSCGNAIAEVVCFSP, the growth estimate is under -0.25.
For ICYSHVVGLCQSGEYNGPPL, the growth estimate was under -0.25.
Then PNIVSGYTPVRKAIKTGHEG, with under -0.25.
Then CFGCSHIGRTCDKGTVTLSC, with under -0.25.
Then LPSGTPVEVVARWVDRQCLF, with under -0.25.
Regarding GETDEQSGFSVLIGGERYEQ, the growth estimate was under -0.25.
In the case of LSVKPD, the growth estimate is -0.25.
For the substance RATAAGVPKGSLNCIPGINL, the growth estimate is under -0.25.
Then QPIPGSKQADRHVNRHKS, with under -0.25.
On to GGEALTQICPYRPLGP, for which the growth estimate is -0.162.
As to GEQRHTQGGTYLFWEQRAQA, the growth estimate was under -0.25.
For CLFCLI, the growth estimate is -0.219.
Take LHKGSEHRNANHQGQATSRG: the growth estimate was under -0.25.
Consider MDST, for which the growth estimate was under -0.25.
Consider CVISTAASGLTGVKAV, for which the growth estimate was under -0.25.
Then IRGLRHRWAGTERYLEQCGG, with under -0.25; and GGASPRKHVLGKPPVCLLV, with under -0.25.
For DFRRLR, the growth estimate was under -0.25.
As for SVIHVRVWLRKRSGTGAQKM, the growth estimate was under -0.25.
For the substance VGLQGRQGPSIT, the growth estimate is under -0.25.
Regarding DCIITLSRSQRKTWRP, the growth estimate was under -0.25.
On to RGFVVVSPGYPRKPPGGPSL, for which the growth estimate was under -0.25.
Turning to AVCQCRRSCAGVECRKGGLV, the growth estimate is under -0.25.
Then EVSPVVVH, with under -0.25.
Then LPRFSLTVWIAKEGDDSGSR, with under -0.25; and SQDTIHALLRSLECQGSHVN, with under -0.25.
For VVLMWNNVPQCA, the growth estimate is under -0.25.
Then DGYVSRLNSRLIRLASGAWS, with under -0.25; and TST, with under -0.25.
Take TGSYGGLLLYTWRLPE: the growth estimate is under -0.25.
As for VVASGGSNKSLQGGASLGVG, the growth estimate was under -0.25.
As for LPESRQVWSSIIERSVLPGT, the growth estimate is under -0.25.
Turning to GPGYYYFAK, the growth estimate is under -0.25.
Then QRQNTTGARRIPLNGRIRSA, with under -0.25; and RIPPVQSIKTLAPSVSRSFD, with under -0.25; and ARNLVRHGP, with under -0.25.
Then GLGRLSVCGHGCYTWFLR, with under -0.25; and RNQANL, with under -0.25.
RSLCDKVCNARLHDIIRLSF: the growth estimate is under -0.25.
Regarding PCEMQKAIAELCSGPGRQ, the growth estimate is under -0.25.
Then LFVDAT, with under -0.25.
Take PRDAKHGRWLDAAWTVSWRL: the growth estimate is under -0.25.
For GGQKVAHEKTL, the growth estimate was under -0.25.
As for ESYPWVCSDSTDTVWGLSTK, the growth estimate is under -0.25.
Regarding SDIDPLGHRH, the growth estimate is under -0.25.
Turning to LLMHL, the growth estimate was under -0.25.
Regarding WNVPLSCH, the growth estimate was under -0.25.
In the case of PEHRPKSSDHNCRGSALTGA, the growth estimate was under -0.25.
Turning to RLGLSGGTLCTNLHRVTRPA, the growth estimate is under -0.25.
Turning to RVMLGSDGSLVPMPTCITPT, the growth estimate is under -0.25.
Then QSV, with under -0.25; and VCHTKHNL, with under -0.25; and SLPMTGHFHERAPWVHALY, with under -0.25.
For FLL, the growth estimate was under -0.25.
As to LTCNRFNLILARRIA, the growth estimate is under -0.25.
Then IKDGCHKL, with under -0.25.
In the case of SRDVLLPSPDFYSCLIRSRG, the growth estimate is under -0.25.
Then GGSSSTLQAVVPCPILVRVT, with under -0.25.
In the case of RRLAVAYRNANKMSTRGAFN, the growth estimate is under -0.25.
In the case of SMRSYGLTAHS, the growth estimate was under -0.25.
Then DVSTRCPSL, with under -0.25.
As to TVICAPDRRRNAGCVAAG, the growth estimate is under -0.25.
For IGMRFRPGRMGSERCRPAAT, the growth estimate was under -0.25.
In the case of WGAEASHCDLRGICVNGWSY, the growth estimate was under -0.25.
As to DLLLLGLTRCH, the growth estimate was under -0.25.
Take RRFTPSALLLGMKRY: the growth estimate is under -0.25.
For the substance RSGTNCERHMED, the growth estimate was under -0.25.
For RDKGHEIVSESLTYRYSRLK, the growth estimate is under -0.25.
As for VIGSP, the growth estimate is under -0.25.
RDVKEFVWGVLFPTTKQIRR: the growth estimate is under -0.25.
Regarding SSLAVPLENAPRCVLVYIK, the growth estimate was under -0.25.
As for VMPGWSGMRLLKSSNSCGCP, the growth estimate is under -0.25.
Then VPRPRAEVLV, with under -0.25.
Take SEQRAADT: the growth estimate was under -0.25.
In the case of SCIPLKICMGWRSPEVTVKV, the growth estimate is under -0.25.
For the substance EGKGLNSIKLQLLGLYGCYQ, the growth estimate was under -0.25.
Then AAGKYWIIFGCSFRY, with under -0.25.
With GQENLSMYIHERFMGRQIV, the growth estimate was under -0.25.
With LPPLRREVTTPSLRASGRPI, the growth estimate is under -0.25.
GGLGRDGLVPLSTVH: the growth estimate was under -0.25.
Then KLMRNSRHRHQRKWAAGSFR, with under -0.25; and VHTKFAKVRAGKVQSRTWTR, with -0.241.
